Tested on: AR, PSA, p53 and p21 protein in LNCaP cells

## c1cc(SSc2ccns2)sn1 [NU9056, 1,2-Bis(isothiazol-5-yl)disulfane]
  reduction of p21 protein level: 3 fold
  reduction of p53 protein level: 3 fold
